Results deposited as PubChem BioAssay AID1671195 (Yale University, 2021).
Aim: 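Regulators of LDL receptor activity judged by labelled LDL uptake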 (primary screen). Cell system: human Huh7 hepatoma cells. Reagent: siRNA pool against human genes, 18 nM. Duration: about 2 to 2.5 days of knockdown, then 8 h LDL uptake. Challenge: DiI-labelled LDL at 30 µg/ml for 8 h, in lipoprotein-deficient serum medium. Detection: 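Per-cell DiI-LDL intensity by automated imaging; well means scaled to the plate median and given as a robust z-score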. Reading the numbers: robust z-score: higher = more LDL uptake after knockdown. Call rule: 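Active when two or more replicates show a robust z-score above 2 or below -2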.
The whole screen tested about 22,000 reagents; shown is a part drawn at random. About 1,510 of them (6.9%) count as active. 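Active includes knockdowns raising or lowering LDL uptake; positive z-scores mean more uptake, negative mean less.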 Entries without a mark were called inactive.

The first 5 records, ahead of the listing:
target | robust z-score, replicate 1 | robust z-score, replicate 2 | robust z-score, replicate 3
ZNF518B (GeneID 85460) | 0.861 | 0.853 | 0.508
ROPN1L (GeneID 83853) | -0.227 | 0.0737 | -0.0691
ABHD13 (GeneID 84945) | 1.03 | -0.0756 | -0.00731
POGLUT2 (GeneID 79070) | -0.356 | -0.526 | -0.107
LONP2 (GeneID 83752) | 1.46 | -2.33 | 2.03

Results, from the first entry:
target | robust z-score, replicate 1 | robust z-score, replicate 2 | robust z-score, replicate 3
ZNF518B (GeneID 85460) | 0.861 | 0.853 | 0.508
ROPN1L (GeneID 83853) | -0.227 | 0.0737 | -0.0691
ABHD13 (GeneID 84945) | 1.03 | -0.0756 | -0.00731
POGLUT2 (GeneID 79070) | -0.356 | -0.526 | -0.107
LONP2 (GeneID 83752) | 1.46 | -2.33 | 2.03
KIAA0408 (GeneID 9729) | 0.142 | 1.83 | 0.128
CHFR (GeneID 55743) | -0.794 | -0.0301 | -0.837
PCSK2 (GeneID 5126) | 0.367 | -0.435 | -0.21
TMEM120A (GeneID 83862) | -1.18 | -1.34 | -1.44
APCDD1 (GeneID 147495) | -2.02 | -1.16 | -1.9
C10orf55 (GeneID 414236) | -1.32 | -1.03 | -1.56
AFF1 (GeneID 4299) | 0.857 | 0.744 | 0.247
ARHGAP28 (GeneID 79822) | -0.994 | -1.06 | -0.587
TYW5 (GeneID 129450) | 0.653 | -0.986 | -0.224
AIFM2 (GeneID 84883) | 1.79 | 1.19 | 1.72
TMED7 (GeneID 51014) | -0.191 | -1.64 | -0.195
HMG20B (GeneID 10362) | -0.483 | 0.429 | 0.377
RAB30 (GeneID 27314) | 0.854 | 0.698 | 1.11
MAPK8IP1 (GeneID 9479) | -0.343 | 0.041 | -1.31
HAPSTR1 (GeneID 29035) | 5.1 (active) | 2.53 | 3.5
RFWD3 (GeneID 55159) | 0.0641 | 0.157 | 1.5
CWC15 (GeneID 51503) | -0.894 | -0.881 | -3
CCDC93 (GeneID 54520) | 1.25 | 0.34 | 1.2
PSPH (GeneID 5723) | -0.194 | -0.0215 | -0.495
LOC400523 (retired record) (GeneID 400523) | -0.229 | -0.597 | -0.724
BTBD17 (GeneID 388419) | -1.94 (active) | -2.14 | -1.61
GNB1 (GeneID 2782) | 0.543 | 0.282 | 0.435
LOC441968 (retired record) (GeneID 441968) | -0.693 | -0.96 | -0.823
LYPD6B (GeneID 130576) | -0.99 | -1.44 | -1.8
EIF2B3 (GeneID 8891) | -0.824 | -0.651 | -0.598
CCDC82 (GeneID 79780) | 0.737 | 0.87 | 1.22
LRRC45 (GeneID 201255) | 0.516 | 0.429 | -0.726
AQP7 (GeneID 364) | -0.359 | -0.332 | -0.769
ZNF541 (GeneID 84215) | -0.853 | -0.564 | -0.86
ELP3 (GeneID 55140) | -1.63 | 0.86 | 0.912
ERICH6 (GeneID 131831) | 0.301 | 0.131 | -1.21
ZNF283 (GeneID 284349) | -0.178 | -0.321 | -0.00621
LOC440358 (retired record) (GeneID 440358) | -0.536 | -0.283 | -0.763
AP1M1 (GeneID 8907) | 0.912 | 1.77 | 1.54
LOC390985 (retired record) (GeneID 390985) | -0.268 | -0.334 | -0.419
OR4C46 (GeneID 119749) | -0.123 | -0.503 | -0.54
LUZP1 (GeneID 7798) | -0.58 | 0.11 | -0.199
ECHDC2 (GeneID 55268) | 1.06 | 0.96 | 1.74
SIGLEC12 (GeneID 89858) | -1.04 | -1.57 | -0.603
GSX1 (GeneID 219409) | 0.0395 | 0.382 | -0.377
KIAA1586 (GeneID 57691) | -0.0464 | 0.00712 | 0.319
MMUT (GeneID 4594) | 0.826 | 1.01 | 1.14
MYOC (GeneID 4653) | -1.04 | -1.2 | -1.33
ZNF76 (GeneID 7629) | 0.269 | 0.375 | 0.3
LOC286408 (retired record) (GeneID 286408) | -0.819 | -0.819 | -0.71
FOLH1 (GeneID 2346) | -0.222 | 0.324 | -0.129
TEX14 (GeneID 56155) | -0.974 | -0.866 | -0.977
RAB27B (GeneID 5874) | -0.218 | -0.621 | -0.765
NMT1 (GeneID 4836) | 0.263 | 0.545 | 0.517
GRAMD1B (GeneID 57476) | -0.103 | -1.06 | -1.16
LOC399898 (retired record) (GeneID 399898) | 2.18 (active) | 2.12 | 2.13
PLXNB2 (GeneID 23654) | -0.508 | -0.581 | -0.973
SF3A3 (GeneID 10946) | 0.397 | 0.639 | 0.854
UBE4A (GeneID 9354) | -0.44 | -0.752 | -0.999
LSM1 (GeneID 27257) | 0.733 | 0.208 | 0.404
WBP1 (GeneID 23559) | -0.465 | -0.681 | -0.0273
PCDHGA2 (GeneID 56113) | -0.433 | -0.579 | -0.409
AP1G2 (GeneID 8906) | -0.629 | -0.89 | -0.438
SPATA31D5P (GeneID 347127) | 0.259 | 0.2 | -0.386
LINC00174 (GeneID 285908) | -0.424 | -0.436 | -0.444
TBC1D10B (GeneID 26000) | 0.211 | 0.599 | -0.38
LOC440364 (retired record) (GeneID 440364) | 1.63 | 2.51 | 1.64
CANT1 (GeneID 124583) | -1.27 | -1.81 | -0.99
THAP12 (GeneID 5612) | -0.473 | -0.247 | -0.553
LOC441828 (retired record) (GeneID 441828) | -0.599 | 1.9 | 1.65
SPTBN1 (GeneID 6711) | 1.73 | 0.518 | 2.76
LINC00663 (GeneID 284440) | 0.458 | 0.417 | 0.528
KMT5B (GeneID 51111) | -1.52 | -1.94 | -0.807
LOC401883 (retired record) (GeneID 401883) | -0.228 | -0.481 | -0.493
FUZ (GeneID 80199) | -2.17 (active) | -2.45 | -2.56
EQTN (GeneID 54586) | 0.578 | 0.909 | 0.252
LOC440586 (retired record) (GeneID 440586) | 0.64 | -0.0235 | -0.0302
GAD1 (GeneID 2571) | -1.3 | 0.653 | -0.274
BAK1 (GeneID 578) | -0.368 | -0.324 | -1.08
MPG (GeneID 4350) | -0.568 | -0.606 | -0.437
LOC441434 (retired record) (GeneID 441434) | 0.0525 | 0.174 | 0.103
SEMA4A (GeneID 64218) | -0.39 | 1.9 | 0.849
PCDHAC1 (GeneID 56135) | 0.746 | 1.31 | 1.05
COLCA1 (GeneID 399948) | 0.902 | 0.841 | 0.676
LRRTM3 (GeneID 347731) | 1.05 | 0.529 | 0.469
LINC00299 (GeneID 339789) | -0.915 | -0.888 | -0.858
ADCK2 (GeneID 90956) | -0.352 | -0.647 | -1.03
